According to PubChem BioAssay AID2685 (National Center for Advancing Translational Sciences (NCATS), 2010):
The campaign covered roughly 320,000 compounds. About 2,100 (0.66%) were called active. The inconclusive results got no clear call from the source; some entries with a clear call stand among them for comparison. The call rests on the fitted dose curve; in most records, active means well fitted inhibition curve with a large enough effect in the signal ratio, with a control signal flat (not every such curve was filed as active); inconclusive means small, poorly fitted or top-dose-only effect, or effect the other way, or a change in a side signal; inactive means flat fitted curve, though single readings scatter; the % refers to the signal ratio. Potencies of inconclusive entries are doubtful fits and often do not repeat.

Assay: qHTS Assay for Lipid Storage Modulators in Drosophila S3 Cells
Conditions: BODIPY lipid droplet fluorescence, 18-24 h, cells fed with added oleic acid; lipid storage change, negative = inhibition: at 46.1 µM (top of the series) unless noted
Method in brief: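 Laser-scanning cytometry quantifies lipid droplet accumulation (500–530 nm total intensity; droplet/cell object ratio) in oleic acid-fed (400 uM added) Drosophila S3 cells treated with a concentration series. 20 uM Triacsin C defined 100% inhibition.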
On the % scale 0 is the no-effect control and ±100 the full control effect; potency means the concentration at half of the fitted maximal effect.

Structure (SMILES) | lipid storage change, negative = inhibition | outcome | Potency
O=C1C=C(N2CCCCCC2)C(=O)N1c1ccc(Cl)cc1 | inconclusive: 11.2% | – | –
CN1C/C(=C/c2ccncc2)C(=O)/C(=C/c2ccncc2)C1 | – | inactive [at 46.1 µM] | –
CC1CCN(S(=O)(=O)c2ccc(N=NC3=C(O)CC(C)(C)CC3=O)cc2)CC1 | inconclusive: 3.93% | – | –
Clc1ccc(CCNc2nc3ccccc3n3nnnc23)cc1 | inconclusive: -31% | – | –
O=C(CSc1nnc(Nc2ccccc2F)s1)NC1CC1 | – | – | inconclusive: 11.6 µM [falling, partial curve, poor fit]
CCCOc1ccc(-c2csc(NC(=O)CN3C(=O)CCC3=O)n2)cc1 | – | – | inconclusive: 1.46 µM [falling, full curve]
NS(=O)(=O)c1ccc(CNC(=S)NCc2ccc(Cl)cc2)cc1 | – | – | inconclusive: 0.164 µM [falling, full curve, poor fit]
Cc1c(OCc2ccc(C(=O)O)o2)ccc2c3c(c(=O)oc12)CCC3 | inconclusive: -0.767% | – | –
O=C(COC(=O)C1CCN(S(=O)(=O)c2cccc3cccnc23)CC1)c1ccccc1 | inconclusive: -2.26% | – | –
CN(C)S(=O)(=O)c1cccc(NC(=O)CC23CC4CC(CC(C4)C2)C3)c1 | – | – | inconclusive: 7.94 µM [falling, partial curve]
CCSc1nc(N)c2c3c(sc2n1)CCC3 | inconclusive: 12.7% | – | –
O=C(CSc1nnc(-c2ccncc2)n1CC1CCCO1)Nc1ccccc1Cl (stereo unspecified) | inactive: 6.87% | – | –
CCCCC[C@H]1CN(C2CCCCC2)C(=O)[C@@H]1CC(=O)NCc1ccccc1 | – | – | active: 16.4 µM
COCCN=c1scc(-c2cccs2)n1/N=C(\C)c1ccco1 | inconclusive: -10.7% | – | –
COc1cc(/C=N/NC(=O)c2ccccc2NS(=O)(=O)c2cccs2)ccc1O | – | – | inconclusive: 1.16 µM [activator, partial curve]
COC(=O)CN1C(=O)N(c2ccccc2)C(N(O)C(=O)Nc2ccccc2)C1(C)C (stereo unspecified) | inconclusive: -13.1% | – | –
CCc1cccc(NC(=O)CCS(=O)(=O)c2ccc3c(c2)NC(=O)CO3)c1 | – | – | inconclusive: 5.8 µM [falling, full curve, poor fit]
O=C(CCC(=O)c1cccs1)NCc1ccncc1 | inconclusive: -3.78% | – | –
CC(C)(CNC(=O)c1cc2c(s1)CCCC2)N1CCOCC1 | inconclusive: 35.2% [at 0.0737 µM] | – | –
COc1ccc(NC(=O)CSc2nnc(C3CCCCC3)n2N)cc1OC | inconclusive: 30.1% | – | –
CCOc1ccc(/C(O)=C2/C(=O)C(=O)N(c3ncccn3)C2c2ccc(Cl)cc2)cc1 (stereo unspecified) | – | – | inconclusive: 0.259 µM [falling, full curve, poor fit]

Sorted by molecular weight (smallest number first): 3 of the compounds above.
Structure (SMILES) | lipid storage change, negative = inhibition | outcome | Potency
CN1C/C(=C/c2ccncc2)C(=O)/C(=C/c2ccncc2)C1 | – | inactive [at 46.1 µM] | –
O=C(CSc1nnc(Nc2ccccc2F)s1)NC1CC1 | – | – | inconclusive: 11.6 µM [falling, partial curve, poor fit]
CCc1cccc(NC(=O)CCS(=O)(=O)c2ccc3c(c2)NC(=O)CO3)c1 | – | – | inconclusive: 5.8 µM [falling, full curve, poor fit]
